From the supplement of paper PMC12067093, “Discovery and optimisation of a covalent ligand for TRIM25 and its application to targeted protein ubiquitination” (Chemical Science, 2025)
The list shows a part of the results.

Chains of the proteins cited; added tags and fusions are not shown. Lines headed by an entry give the natural chain unless they say otherwise; changes in a name come on top.
UniProt Q96EP0: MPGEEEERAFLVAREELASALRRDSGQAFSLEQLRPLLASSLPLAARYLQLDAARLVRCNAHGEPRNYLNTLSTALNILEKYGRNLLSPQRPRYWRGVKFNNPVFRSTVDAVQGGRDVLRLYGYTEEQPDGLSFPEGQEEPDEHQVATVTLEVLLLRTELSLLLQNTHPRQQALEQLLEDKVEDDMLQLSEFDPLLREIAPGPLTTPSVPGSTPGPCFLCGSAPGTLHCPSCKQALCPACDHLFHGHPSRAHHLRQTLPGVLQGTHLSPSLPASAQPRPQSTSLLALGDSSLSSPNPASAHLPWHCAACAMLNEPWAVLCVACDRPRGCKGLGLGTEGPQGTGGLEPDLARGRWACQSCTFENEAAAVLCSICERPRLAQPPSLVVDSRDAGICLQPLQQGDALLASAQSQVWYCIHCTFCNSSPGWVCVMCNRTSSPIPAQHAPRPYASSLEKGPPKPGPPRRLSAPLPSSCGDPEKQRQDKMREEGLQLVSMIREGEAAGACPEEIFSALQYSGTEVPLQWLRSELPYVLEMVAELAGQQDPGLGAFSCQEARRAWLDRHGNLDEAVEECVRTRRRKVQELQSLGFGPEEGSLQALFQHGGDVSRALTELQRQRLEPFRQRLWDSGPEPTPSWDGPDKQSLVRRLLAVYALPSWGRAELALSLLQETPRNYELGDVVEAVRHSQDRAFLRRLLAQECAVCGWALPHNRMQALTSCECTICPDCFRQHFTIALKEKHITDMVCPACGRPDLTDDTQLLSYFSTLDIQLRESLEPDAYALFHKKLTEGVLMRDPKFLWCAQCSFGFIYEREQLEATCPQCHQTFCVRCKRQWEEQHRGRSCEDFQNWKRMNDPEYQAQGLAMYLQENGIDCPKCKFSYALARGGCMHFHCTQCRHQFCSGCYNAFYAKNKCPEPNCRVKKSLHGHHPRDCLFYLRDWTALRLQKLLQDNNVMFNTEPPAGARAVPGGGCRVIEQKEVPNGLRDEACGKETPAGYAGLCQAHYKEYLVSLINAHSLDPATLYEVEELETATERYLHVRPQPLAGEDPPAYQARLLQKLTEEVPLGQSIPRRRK
UniProt Q9H7B2: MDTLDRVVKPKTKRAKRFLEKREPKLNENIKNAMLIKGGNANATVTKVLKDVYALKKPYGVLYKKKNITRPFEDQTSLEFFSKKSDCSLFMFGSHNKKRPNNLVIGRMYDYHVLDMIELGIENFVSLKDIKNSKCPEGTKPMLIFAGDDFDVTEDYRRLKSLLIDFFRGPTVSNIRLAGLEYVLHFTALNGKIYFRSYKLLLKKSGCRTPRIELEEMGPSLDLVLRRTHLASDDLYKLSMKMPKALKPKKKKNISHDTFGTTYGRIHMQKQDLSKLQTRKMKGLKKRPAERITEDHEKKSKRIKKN
UniProt P49247: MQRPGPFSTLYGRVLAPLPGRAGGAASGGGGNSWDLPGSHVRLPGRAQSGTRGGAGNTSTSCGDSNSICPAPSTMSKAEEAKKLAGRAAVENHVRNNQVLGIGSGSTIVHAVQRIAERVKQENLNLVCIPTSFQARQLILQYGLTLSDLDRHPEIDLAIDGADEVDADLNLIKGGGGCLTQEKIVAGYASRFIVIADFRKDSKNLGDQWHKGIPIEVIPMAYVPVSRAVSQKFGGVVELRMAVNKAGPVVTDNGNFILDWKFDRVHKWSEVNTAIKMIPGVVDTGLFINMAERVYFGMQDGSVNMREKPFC
UniProt P13489: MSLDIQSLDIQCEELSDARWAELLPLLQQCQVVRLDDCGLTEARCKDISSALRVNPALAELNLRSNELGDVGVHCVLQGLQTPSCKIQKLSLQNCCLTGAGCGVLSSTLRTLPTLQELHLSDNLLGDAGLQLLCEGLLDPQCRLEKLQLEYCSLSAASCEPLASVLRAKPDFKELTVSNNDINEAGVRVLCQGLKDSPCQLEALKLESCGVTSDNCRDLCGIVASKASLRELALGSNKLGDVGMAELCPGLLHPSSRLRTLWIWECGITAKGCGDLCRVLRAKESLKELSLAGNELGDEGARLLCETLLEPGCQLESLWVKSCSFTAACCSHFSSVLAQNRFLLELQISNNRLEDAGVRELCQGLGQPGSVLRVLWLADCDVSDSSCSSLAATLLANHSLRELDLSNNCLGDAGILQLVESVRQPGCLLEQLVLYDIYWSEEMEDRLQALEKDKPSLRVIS
UniProt Q13464: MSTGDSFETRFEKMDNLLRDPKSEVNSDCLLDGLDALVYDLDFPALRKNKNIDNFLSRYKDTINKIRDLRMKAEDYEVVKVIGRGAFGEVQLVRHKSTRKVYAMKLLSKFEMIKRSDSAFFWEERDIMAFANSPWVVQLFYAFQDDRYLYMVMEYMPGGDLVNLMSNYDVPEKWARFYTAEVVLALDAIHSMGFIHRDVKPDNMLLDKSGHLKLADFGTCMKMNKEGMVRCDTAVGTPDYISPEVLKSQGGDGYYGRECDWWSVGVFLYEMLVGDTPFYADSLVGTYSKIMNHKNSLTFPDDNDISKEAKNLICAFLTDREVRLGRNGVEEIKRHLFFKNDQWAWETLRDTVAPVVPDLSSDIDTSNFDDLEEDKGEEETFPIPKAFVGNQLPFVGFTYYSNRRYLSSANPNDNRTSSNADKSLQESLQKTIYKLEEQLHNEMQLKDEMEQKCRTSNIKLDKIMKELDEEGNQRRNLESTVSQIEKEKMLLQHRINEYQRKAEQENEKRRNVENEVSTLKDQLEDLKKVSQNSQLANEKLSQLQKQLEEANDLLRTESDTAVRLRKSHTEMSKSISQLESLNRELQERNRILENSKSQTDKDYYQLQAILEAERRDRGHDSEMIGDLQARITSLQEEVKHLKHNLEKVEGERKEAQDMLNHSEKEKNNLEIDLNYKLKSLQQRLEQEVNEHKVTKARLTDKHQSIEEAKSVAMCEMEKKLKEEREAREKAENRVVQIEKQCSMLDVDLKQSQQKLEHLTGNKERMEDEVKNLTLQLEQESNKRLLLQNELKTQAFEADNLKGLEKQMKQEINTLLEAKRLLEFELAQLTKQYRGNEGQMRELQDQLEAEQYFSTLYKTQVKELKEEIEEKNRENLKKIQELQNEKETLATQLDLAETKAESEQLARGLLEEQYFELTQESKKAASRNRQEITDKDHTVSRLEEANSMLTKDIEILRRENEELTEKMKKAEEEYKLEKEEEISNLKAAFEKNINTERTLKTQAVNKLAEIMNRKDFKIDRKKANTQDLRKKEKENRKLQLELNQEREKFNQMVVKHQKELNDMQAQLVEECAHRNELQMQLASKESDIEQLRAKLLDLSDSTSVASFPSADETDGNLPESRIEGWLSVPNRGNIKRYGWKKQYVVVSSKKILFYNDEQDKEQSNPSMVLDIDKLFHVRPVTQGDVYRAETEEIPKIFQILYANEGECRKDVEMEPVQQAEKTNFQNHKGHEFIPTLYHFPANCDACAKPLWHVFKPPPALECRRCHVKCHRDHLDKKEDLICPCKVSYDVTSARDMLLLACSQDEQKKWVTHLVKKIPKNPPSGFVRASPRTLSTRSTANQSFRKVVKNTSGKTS
UniProt O60942: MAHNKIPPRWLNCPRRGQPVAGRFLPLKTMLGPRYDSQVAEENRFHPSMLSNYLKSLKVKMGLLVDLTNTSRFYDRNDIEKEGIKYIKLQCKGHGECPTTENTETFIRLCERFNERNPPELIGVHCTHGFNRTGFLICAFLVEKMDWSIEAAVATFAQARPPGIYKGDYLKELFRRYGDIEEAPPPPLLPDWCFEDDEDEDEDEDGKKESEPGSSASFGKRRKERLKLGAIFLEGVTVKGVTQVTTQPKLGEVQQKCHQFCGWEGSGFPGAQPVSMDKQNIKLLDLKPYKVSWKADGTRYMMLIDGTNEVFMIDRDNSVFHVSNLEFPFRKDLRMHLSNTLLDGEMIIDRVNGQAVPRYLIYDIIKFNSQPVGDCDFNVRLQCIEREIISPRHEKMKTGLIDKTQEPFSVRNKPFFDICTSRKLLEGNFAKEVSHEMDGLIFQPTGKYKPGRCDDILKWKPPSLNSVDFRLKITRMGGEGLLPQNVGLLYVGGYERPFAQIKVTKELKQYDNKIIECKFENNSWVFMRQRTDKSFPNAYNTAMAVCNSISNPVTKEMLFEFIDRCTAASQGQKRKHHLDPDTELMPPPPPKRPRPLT
UniProt O75116: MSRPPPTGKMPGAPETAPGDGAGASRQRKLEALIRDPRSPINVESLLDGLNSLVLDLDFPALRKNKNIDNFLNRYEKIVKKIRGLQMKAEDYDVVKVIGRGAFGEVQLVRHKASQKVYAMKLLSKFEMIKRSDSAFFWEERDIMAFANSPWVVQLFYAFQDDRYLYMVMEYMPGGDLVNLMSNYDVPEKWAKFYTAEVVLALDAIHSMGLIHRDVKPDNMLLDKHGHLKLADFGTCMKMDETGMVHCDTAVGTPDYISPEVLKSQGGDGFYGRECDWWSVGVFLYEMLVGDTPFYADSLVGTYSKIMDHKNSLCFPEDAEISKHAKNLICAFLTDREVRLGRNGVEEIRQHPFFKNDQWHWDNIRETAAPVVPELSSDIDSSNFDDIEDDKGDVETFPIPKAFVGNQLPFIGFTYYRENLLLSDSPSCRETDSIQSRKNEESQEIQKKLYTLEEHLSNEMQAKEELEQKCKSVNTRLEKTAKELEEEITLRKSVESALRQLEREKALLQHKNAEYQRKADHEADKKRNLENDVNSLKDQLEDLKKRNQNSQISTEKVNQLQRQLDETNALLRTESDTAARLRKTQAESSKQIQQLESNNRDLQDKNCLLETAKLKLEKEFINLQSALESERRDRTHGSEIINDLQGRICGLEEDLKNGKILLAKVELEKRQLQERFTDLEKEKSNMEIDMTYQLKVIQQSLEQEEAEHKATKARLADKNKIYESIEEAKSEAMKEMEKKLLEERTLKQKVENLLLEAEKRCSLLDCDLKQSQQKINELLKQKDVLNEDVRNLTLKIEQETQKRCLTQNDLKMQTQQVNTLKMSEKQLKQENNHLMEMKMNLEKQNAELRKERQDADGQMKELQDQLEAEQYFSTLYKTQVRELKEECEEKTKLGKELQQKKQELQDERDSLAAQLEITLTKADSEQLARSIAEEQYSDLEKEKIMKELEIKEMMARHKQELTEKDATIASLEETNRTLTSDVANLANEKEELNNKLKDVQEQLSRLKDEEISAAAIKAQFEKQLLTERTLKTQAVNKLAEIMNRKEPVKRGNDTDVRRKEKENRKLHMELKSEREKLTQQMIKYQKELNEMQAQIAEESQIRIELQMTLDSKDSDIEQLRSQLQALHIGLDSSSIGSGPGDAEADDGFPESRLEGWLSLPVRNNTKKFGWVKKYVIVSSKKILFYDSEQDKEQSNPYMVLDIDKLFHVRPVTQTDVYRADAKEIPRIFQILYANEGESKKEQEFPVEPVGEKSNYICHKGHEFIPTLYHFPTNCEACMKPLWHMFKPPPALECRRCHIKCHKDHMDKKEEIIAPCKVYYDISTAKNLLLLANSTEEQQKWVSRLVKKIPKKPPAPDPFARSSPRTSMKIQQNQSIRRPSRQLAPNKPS
UniProt Q8ND24: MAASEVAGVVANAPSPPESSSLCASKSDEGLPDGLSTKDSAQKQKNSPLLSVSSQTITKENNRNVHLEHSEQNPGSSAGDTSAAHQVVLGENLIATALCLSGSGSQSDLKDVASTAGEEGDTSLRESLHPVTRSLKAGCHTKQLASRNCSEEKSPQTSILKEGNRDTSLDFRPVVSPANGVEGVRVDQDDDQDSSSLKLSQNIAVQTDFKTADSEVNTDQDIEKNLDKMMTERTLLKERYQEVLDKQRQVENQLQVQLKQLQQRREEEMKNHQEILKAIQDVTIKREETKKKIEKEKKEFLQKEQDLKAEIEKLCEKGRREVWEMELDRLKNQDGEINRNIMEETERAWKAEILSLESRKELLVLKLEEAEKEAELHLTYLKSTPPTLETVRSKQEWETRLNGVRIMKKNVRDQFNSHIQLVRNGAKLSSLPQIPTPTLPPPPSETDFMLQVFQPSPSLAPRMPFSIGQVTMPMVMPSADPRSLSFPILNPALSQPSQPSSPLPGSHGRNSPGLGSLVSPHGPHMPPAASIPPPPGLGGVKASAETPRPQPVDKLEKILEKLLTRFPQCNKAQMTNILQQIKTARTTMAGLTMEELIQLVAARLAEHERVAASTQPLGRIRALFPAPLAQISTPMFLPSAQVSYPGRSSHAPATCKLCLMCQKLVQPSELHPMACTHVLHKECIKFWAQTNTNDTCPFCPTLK

Compound: Cc1cc(ccc1-c1ccccc1)C(=O)N1CCCN(CC1)C(=O)CCl [compound 10]
Assay: probe-labelled cysteine peptide fold change vs DMSO (competition) (log2 fold change); higher = less target engagement (more negative = stronger competition)
Conditions: THP-1, incubation time: 4 h
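Note: competitive profiling in live THP-1 cells: cysteine peptides tagged with an iodoacetamide desthiobiotin (IA-DTB) probe, intensity after compound treatment relative to DMSO-treated cells.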

| Target | probe-labelled cysteine peptide fold change (10 µM) | probe-labelled cysteine peptide fold change (50 µM) |
| --- | --- | --- |
| RNF31_Q96EP0_898_HQFCSGCYNAFYAK (UniProt Q96EP0) | -0.0425 | -0.238 |
| RPF2_Q9H7B2_135_CPEGTKPMLIFAGDDFDVTEDYRR (UniProt Q9H7B2) | -0.129 | 0.175 |
| RPIA_P49247_128_VKQENLNLVCIPTSFQAR (UniProt P49247) | 0.147 | -0.115 |
| RPL6_Q02878_44_GKPHCSR (UniProt Q02878) | -0.129 | -0.0323 |
| RNF213_Q63HN8_1805_CLPAFLPDCLDLETLGHCLAHLAGMGGSPVER (UniProt Q63HN8) | -0.0197 | 0.00948 |
| RPL4_P36578_250_FCIWTESAFR (UniProt P36578) | -0.0866 | 0.0436 |
| RNF213_Q63HN8_3365_NCLTNTAK (UniProt Q63HN8) | 0.0859 | -0.0404 |
| RNF213_Q63HN8_2536_HSEEMICR (UniProt Q63HN8) | -0.102 | 0.00526 |
| RNFT1_Q5M7Z0_90_ECAENASSR (UniProt Q5M7Z0) | -0.264 | -0.647 |
| RPL37A_P61513_60_RAVGIWHCGSCMK (UniProt P61513) | -0.114 | -0.633 |
| RPL6_Q02878_44_KGKPHCSR (UniProt Q02878) | -0.0624 | -0.39 |
| RPL18A_Q02543_64_KSSGEIVYCGQVFEK (UniProt Q02543) | -0.13 | -0.411 |
| RPL4_P36578_125_YAICSALAASALPALVMSK (UniProt P36578) | 0.141 | -0.0535 |
| RPL13A_P40429_38_CEGINISGNFYR (UniProt P40429) | -0.0486 | 0.443 |
| RNH1_P13489_96+102_LSLQNCCLTGAGCGVLSSTLR (UniProt P13489) | 0.0336 | 0.319 |
| RPL18A_Q02543_64_SSGEIVYCGQVFEK (UniProt Q02543) | -0.123 | 0.188 |
| RNF213_Q63HN8_2918_GICSSDILVQDR (UniProt Q63HN8) | -0.125 | 0.116 |
| RNF40_O75150_890_LREIQPCLAESR (UniProt O75150) | -0.026 | -0.412 |

| Target | probe-labelled cysteine peptide fold change (10 µM) | probe-labelled cysteine peptide fold change (50 µM) |
| --- | --- | --- |
| RPL11_P62913_21+25_KLCLNICVGESGDR (UniProt P62913) | -0.0801 | -0.334 |
| RNF169_Q8NCN4_337_CVSAPDLTIEK (UniProt Q8NCN4) | 0.0213 | -0.147 |
| ROCK1_Q13464_231_CDTAVGTPDYISPEVLK (UniProt Q13464) | -0.191 | 0.0857 |
| RNPEP_Q9H4A4_151_VGEGPGVCWLAPEQTAGK (UniProt Q9H4A4) | 0.219 | 0.282 |
| RNGTT_O60942_419_NKPFFDICTSR (UniProt O60942) | -0.423 | -0.891 |
| RPAP3_Q9H6T3_190_KFAVAESDCNLAVALNR (UniProt Q9H6T3) | 0.117 | -0.212 |
| RNH1_P13489_323_SCSFTAACCSHFSSVLAQNR (UniProt P13489) | 0.304 | 0.0048 |
| RNH1_P13489_387_VLWLADCDVSDSSCSSLAATLLANHSLR (UniProt P13489) | 0.125 | 0.164 |
| RNH1_P13489_329+330_SCSFTAACCSHFSSVLAQNR (UniProt P13489) | -0.00845 | -0.113 |
| ROCK1_Q13464_1245_GHEFIPTLYHFPANCDACAK (UniProt Q13464) | 0.157 | -0.00132 |
| RNF25_Q96BH1_417_TRDCVR (UniProt Q96BH1) | -0.364 | -0.538 |
| RNH1_P13489_277_GCGDLCR (UniProt P13489) | -0.555 | -0.502 |
| ROCK2_O75116_1315_EEIIAPCK (UniProt O75116) | 0.0087 | -0.203 |
| RNF214_Q8ND24_675_LVQPSELHPMACTHVLHK (UniProt Q8ND24) | 0.0646 | 0.0132 |
| RNH1_P13489_30_WAELLPLLQQCQVVR (UniProt P13489) | 0.0863 | 0.0624 |
| RNF214_Q8ND24_696_FWAQTNTNDTCPFCPTLK (UniProt Q8ND24) | 0.35 | 1.12 |
| RNF213_Q63HN8_1788_CLPAFLPDCLDLETLGHCLAHLAGMGGSPVER (UniProt Q63HN8) | 0.234 | 0.183 |

Rewritten tab-delimited: part of the list above.
Target	probe-labelled cysteine peptide fold change (10 µM)	probe-labelled cysteine peptide fold change (50 µM)
RNH1_P13489_323_SCSFTAACCSHFSSVLAQNR (UniProt P13489)	0.304	0.0048
RNH1_P13489_387_VLWLADCDVSDSSCSSLAATLLANHSLR (UniProt P13489)	0.125	0.164
